## Primary screen of a compound library

Sequences of proteins named here, by UniProt entry; tags and fusion partners are left off.
UniProt E9BF75, entry or part of it: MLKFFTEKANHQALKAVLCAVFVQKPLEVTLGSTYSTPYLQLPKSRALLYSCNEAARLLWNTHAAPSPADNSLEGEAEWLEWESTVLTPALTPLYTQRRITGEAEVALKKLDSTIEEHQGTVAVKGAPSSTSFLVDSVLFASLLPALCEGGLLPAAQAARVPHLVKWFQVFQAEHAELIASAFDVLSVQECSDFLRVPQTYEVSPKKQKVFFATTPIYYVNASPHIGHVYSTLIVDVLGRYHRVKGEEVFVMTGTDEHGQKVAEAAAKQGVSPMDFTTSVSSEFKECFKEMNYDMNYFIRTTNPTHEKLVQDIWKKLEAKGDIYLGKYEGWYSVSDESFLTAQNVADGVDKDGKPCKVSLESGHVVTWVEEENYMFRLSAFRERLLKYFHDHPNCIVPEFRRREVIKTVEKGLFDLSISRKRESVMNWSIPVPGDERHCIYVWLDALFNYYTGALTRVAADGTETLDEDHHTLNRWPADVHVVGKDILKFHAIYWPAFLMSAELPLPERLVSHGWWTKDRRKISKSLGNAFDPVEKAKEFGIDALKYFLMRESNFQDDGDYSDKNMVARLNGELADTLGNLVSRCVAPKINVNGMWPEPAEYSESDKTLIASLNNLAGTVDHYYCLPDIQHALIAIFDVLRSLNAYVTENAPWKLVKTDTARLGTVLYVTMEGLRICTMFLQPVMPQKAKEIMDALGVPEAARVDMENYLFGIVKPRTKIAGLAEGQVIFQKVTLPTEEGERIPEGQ

All values are in %.
The record does not define 0% and 100%; most values in the screen are far below 50% and negative numbers occur (in some assays of this library far below -100).
This is an unselected part of the compounds tested.
A dash means the value is not listed here; it may have been measured.

Mtb heat-shock: 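Assay on Mycobacterium tuberculosis, filed only as a heat shock assay from Cornell; the read-out is not stated. The concentration is filed as 10 mM, unlikely as a test dose, so the dose is not known. Higher reads as stronger inhibition (inferred: compounds with an IC50 in retests scored well above the rest). Size under these conditions: about 69,000 compounds, about 930 of them at 50% or above in at least one test.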
Mtb growth Cornell: 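Whole-cell assay for inhibitors of Mycobacterium tuberculosis growth, labelled Cornell in the record; the read-out is not stated. The concentration is filed as 10 mM, unlikely as a test dose, so the dose is not known. The record gives no direction; compounds strong in two other growth screens of this library score well above the rest, so higher reads as stronger inhibition. Size under these conditions: about 53,000 compounds, about 900 of them at 50% or above in at least one test.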
LdMetRS: 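Primary screen of methionyl-tRNA synthetase; the read-out is not stated. Target: Methionyl-tRNA synthetase (putative), Leishmania donovani (UniProt E9BF75). The test concentration is not given. Values are per cent inhibition. About 68,000 compounds were tested under these conditions; 0.035% (about 24) showed 50% or more at least once.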

| SMILES | Mtb heat-shock | Mtb growth Cornell | LdMetRS |
|---|---|---|---|
| `Cc1cc(CN(C)C(=O)c2cccc(CCC(C)(C)O)c2)no1` | 5.115% | -12.85% | 11.73% |
| `Cc1cn2nc(N3CCCC3Cn3nc(C)nc3C)sc2n1` (stereo not shown) | -16.35% | - | 16.94% |
| `CCNC(=O)[C@@H]1C[C@H](NC(=O)Cn2ccnc2)CN1Cc1ccsc1` | -21.86% | 104.2% | -0.3058% |
| `CCc1ccc(CCC(=O)N2CCC(=O)Nc3cccnc32)cc1` | -27.63% | - | 11.15% |
| `CC1(C)OCC2(CO1)CN(C(=O)c1ccccc1Cl)C2` | -0.3278% | 23.88% | 8.633% |
| `Cc1cc(C)nc(Nc2cccc(C3CCCN(C)C3)n2)n1.O=CO` (stereo not shown) | 8.965% | 2.114% | - |
| `Cl.FC(F)CNc1cnc(C2CCCN2)cn1` (stereo not shown) | -21.09% | -67.87% | - |
| `O=C(O)C(F)(F)F.[H][C@@]12CCC(=O)N(c3ccccc3)[C@]1([H])CCN2C(=O)c1cccc(C)n1` | -15.56% | -47% | - |
| `CC(C)n1c2ccccc2c2c1cc(C(=O)NC1CC1)n2C(=O)N(C)C` | 22.9% | -2.402% | 13.44% |
| `COc1cccc(CNC(=O)NC2(c3nc(C)no3)CCCCC2)c1` | -9.021% | -36.93% | 6.475% |
| `CCc1nccn1C1CCCN(C(=O)c2cncnc2C)C1` (stereo not shown) | -18.25% | - | 3.374% |
| `O=C(NCCN1CCOCC1)NCc1ccccc1-n1cccn1` | 15.19% | 24.65% | 13.4% |
| `O=S(=O)(CCCn1cncn1)Cc1ccccc1Cl` | -9.752% | -20.54% | 5.85% |
| `O=C(c1cnccn1)N(CCO)Cc1cc(Br)ccc1F` | -10.95% | -2.18% | 6.971% |
| `O=C(NCC1=CCCCC1)C(c1cccnc1)N1CCCC1` (stereo not shown) | 1.053% | -18.36% | -1.446% |
| `CC(C(N)=O)N(C)CCCc1cc(-c2ccccc2)no1` (stereo not shown) | 17.55% | 30.02% | 9.206% |
| `COc1ccc(NC(=O)C2CC2)cc1OCc1cccnc1` | 23.57% | 15.03% | 8.541% |
| `CN(C)C(=O)c1cc(-c2ccccc2)[nH]n1` | 9.534% | 13.55% | 13.06% |
| `[H][C@@]12CN(C(=O)c3cnccn3)C[C@]1([H])CN(c1cc(OC)ncn1)C2` | -27.43% | 14.85% | - |
| `CC(NC(=O)c1sccc1C1CC1)c1ccc2c(c1)CC(=O)N2` (stereo not shown) | 7.332% | 1.793% | 13.12% |
| `Cc1nn(C)c2nc(NCCCN3CCCC(C(N)=O)C3)sc12` (stereo not shown) | 10.59% | -6.31% | 12.66% |
| `CCOc1ccc(Cl)c(C(=O)N(C)C)n1` | 27.33% | 8.076% | 6.748% |
| `Cc1cc2c(=O)n3c(nc2s1)CCN(C(=O)c1ccnn1C)CC3` | -4.293% | -7.065% | 20.06% |
| `CC(C)c1cc(CN2CCC(N)CC2)no1` | -1.347% | -17.69% | 13.24% |
| `COc1cc(C#N)ccc1OC12CCCN(CC1)C2` (stereo not shown) | -7.079% | 14.23% | 15.05% |
| `Cc1nn2c(N3CCC(C(N)=O)CC3)cc(-c3ccccc3)nc2c1C` | -20.68% | 21.25% | 21.28% |
| `Cc1ccc(NC2CCN(C(=O)c3nccc4ccccc34)CC2)nn1` | -3.201% | - | 12.05% |
| `CCCC(Nc1nc(COCC)nc2c1CCNCC2)c1nccn1C` (stereo not shown) | -21.33% | - | 12.45% |
| `O=C(CN1CCSC2(CCCCC2)C1)NCC(F)(F)F` | 13.18% | 14.55% | 16.43% |
| `Cn1cc(CN2CCCC3(CCN3S(C)(=O)=O)C2)cn1` (stereo not shown) | -16.16% | -51.14% | 0% |
| `c1cc(CN2CCc3c(nnn3CC3CC3)C2COCC2CC2)co1` (stereo not shown) | - | - | 7.19% |
| `CN(C)c1ccc(NC(=O)N2CCCC2c2ccsc2)cn1` (stereo not shown) | 20.85% | - | 17.9% |
| `Cc1noc(C)c1CNC(=O)N1CCC(Cc2cnn(C)c2)C1` (stereo not shown) | -4.01% | - | 18.42% |
| `CC(Cn1ccnc1)NS(=O)(=O)c1ccc(F)c(Cl)c1` (stereo not shown) | 14.24% | 11.6% | 9.777% |
| `Cc1nc(CN2C(=O)CCC23CCN(Cc2ccoc2)CC3)cs1.O=C(O)C(F)(F)F.O=C(O)C(F)(F)F` | -26.87% | 44.6% | - |
| `Cc1ncc(CNC(=O)NCC(C)Oc2ccccc2F)s1` (stereo not shown) | 3.374% | - | 15.41% |
| `CN(c1ccc(C(=O)NCCCN2CCCC2)c(Cl)c1)S(C)(=O)=O` | -18.09% | -3.314% | 3.542% |
| `O=C(CN1CCNCC1)NCc1ccc2sccc2c1` | -38.9% | 1.347% | 9.804% |
| `COc1ncccc1CN1CCC2(CCCN2S(C)(=O)=O)CC1` | - | - | 9.783% |
| `CCC(C)N(Cc1cnc(NC(C)C)nc1)Cc1ccsc1` (stereo not shown) | -17.09% | 19.91% | 16.72% |
| `CN(Cc1cn2c(n1)CN(C(N)=O)CC2)Cc1ccco1` | 4.389% | -0.9956% | 9.929% |
| `Cc1nc(C)n(CC2CCCN(Cc3cccc(C#N)c3)C2)n1` (stereo not shown) | 9.822% | 10.41% | 15.69% |
| `CC(C)CN1CCN(C)C2(CCN(c3nccs3)CC2)C1=O.O=C(O)C(F)(F)F` | -28.83% | -23.98% | - |
| `Cc1ccc(F)c(C(=O)N2C[C@@H](C(=O)O)[C@H](c3ccncc3)C2)c1Cl` | -4.219% | - | 6.593% |
| `NC1(C(=O)N2CCC(c3cc(-c4ccccc4Cl)n[nH]3)CC2)CCC1` | -28.14% | -49.8% | 4.902% |
| `O=C1Nc2ccccc2CC12CCCN2Cc1cccnc1` (stereo not shown) | -19.34% | - | 6.857% |

The last 4 entries again:

- CC(C)CN1CCN(C)C2(CCN(c3nccs3)CC2)C1=O.O=C(O)C(F)(F)F | Mtb heat-shock: -28.83%; Mtb growth Cornell: -23.98%
- Cc1ccc(F)c(C(=O)N2C[C@@H](C(=O)O)[C@H](c3ccncc3)C2)c1Cl | Mtb heat-shock: -4.219%; LdMetRS: 6.593%
- NC1(C(=O)N2CCC(c3cc(-c4ccccc4Cl)n[nH]3)CC2)CCC1 | Mtb heat-shock: -28.14%; Mtb growth Cornell: -49.8%; LdMetRS: 4.902%
- O=C1Nc2ccccc2CC12CCCN2Cc1cccnc1 (stereo not shown) | Mtb heat-shock: -19.34%; LdMetRS: 6.857%

From ChEMBL document CHEMBL3988442, “University of Dundee, Small-Polar-MMV Screening Library” (2021).